No constants are given. Whether binding was seen depends on the method and setting. In cells and extracts the contact can be indirect. A yes stands for co-enrichment or nearness to the bait. Other partners may have been found. Blank lines part the entries; values can stand above or below the binder they belong to.
Molecular target: FTO, N-terminal BirA* fusion (human) (UniProt Q9C0B1)
Assay: proximity labelling; BioID: BirA*-fused bait induced with 200 ng/ml dox in stable 293T cells, 50 μM biotin for 24 h, streptavidin bead purification of biotinylated proteins, LC-MS/MS; hits filtered by Limma (>4-fold, adjusted P < 0.01) and SAINT (score >0.74) against BirA* and NLS-BirA* controls

binding: binds
B3: YJU2 (CCDC94) (protein, UniProt Q9BW85 1-323)
chain: MSERKVLNKYYPPDFDPSKIPKLKLPKDRQYVVRLMAPFNMRCKTCGEYIYKGKKFNARKETVQNEVYLGLPIFRFYIKCTRCLAEITFKTDPENTDYTMEHGATRNFQAEKLLEEEEKRVQKEREDEELNNPMKVLENRTKDSKLEMEVLENLQELKDLNQRQAHVDFEAMLRQHRLSEEERRRQQQEEDEQETAALLEEARKRRLLEDSDSEDEAAPSPLQPALRPNPTAILDEAPKPKRKVEVWEQSVGSLGSRPPLSRLVVVKKAKADPDCSNGQPQAAPTPGAPQNRKEANPTPLTPGASSLSQLGAYLDSDDSNGSN

binding: binds
B4: SNPC4 (protein, UniProt Q5SXM2 1-1469)
chain: MDVDAEREKITQEIKELERILDPGSSGSHVEISESSLESDSEADSLPSEDLDPADPPISEEERWGEASNDEDDPKDKTLPEDPETCLQLNMVYQEVIQEKLAEANLLLAQNREQQEELMRDLAGSKGTKVKDGKSLPPSTYMGHFMKPYFKDKVTGVGPPANEDTREKAAQGIKAFEELLVTKWKNWEKALLRKSVVSDRLQRLLQPKLLKLEYLHQKQSKVSSELERQALEKQGREAEKEIQDINQLPEEALLGNRLDSHDWEKISNINFEGSRSAEEIRKFWQNSEHPSINKQEWSREEEERLQAIAAAHGHLEWQKIAEELGTSRSAFQCLQKFQQHNKALKRKEWTEEEDRMLTQLVQEMRVGSHIPYRRIVYYMEGRDSMQLIYRWTKSLDPGLKKGYWAPEEDAKLLQAVAKYGEQDWFKIREEVPGRSDAQCRDRYLRRLHFSLKKGRWNLKEEEQLIELIEKYGVGHWAKIASELPHRSGSQCLSKWKIMMGKKQGLRRRRRRARHSVRWSSTSSSGSSSGSSGGSSSSSSSSSEEDEPEQAQAGEGDRALLSPQYMVPDMDLWVPARQSTSQPWRGGAGAWLGGPAASLSPPKGSSASQGGSKEASTTAAAPGEETSPVQVPARAHGPVPRSAQASHSADTRPAGAEKQALEGGRRLLTVPVETVLRVLRANTAARSCTQKEQLRQPPLPTSSPGVSSGDSVARSHVQWLRHRATQSGQRRWRHALHRRLLNRRLLLAVTPWVGDVVVPCTQASQRPAVVQTQADGLREQLQQARLASTPVFTLFTQLFHIDTAGCLEVVRERKALPPRLPQAGARDPPVHLLQASSSAQSTPGHLFPNVPAQEASKSASHKGSRRLASSRVERTLPQASLLASTGPRPKPKTVSELLQEKRLQEARAREATRGPVVLPSQLLVSSSVILQPPLPHTPHGRPAPGPTVLNVPLSGPGAPAAAKPGTSGSWQEAGTSAKDKRLSTMQALPLAPVFSEAEGTAPAASQAPALGPGQISVSCPESGLGQSQAPAASRKQGLPEAPPFLPAAPSPTPLPVQPLSLTHIGGPHVATSVPLPVTWVLTAQGLLPVPVPAVVSLPRPAGTPGPAGLLATLLPPLTETRAAQGPRAPALSSSWQPPANMNREPEPSCRTDTPAPPTHALSQSPAEADGSVAFVPGEAQVAREIPEPRTSSHADPPEAEPPWSGRLPAFGGVIPATEPRGTPGSPSGTQEPRGPLGLEKLPLRQPGPEKGALDLEKPPLPQPGPEKGALDLGLLSQEGEAATQQWLGGQRGVRVPLLGSRLPYQPPALCSLRALSGLLLHKKALEHKATSLVVGGEAERPAGALQASLGLVRGQLQDNPAYLLLRARFLAAFTLPALLATLAPQGVRTTLSVPSRVGSESEDEDLLSELELADRDGQPGCTTATCPIQGAPDSGKCSASSCLDTSNDPDDLDVLRTRHARHTRKRRRLV

binding: binds
B5: guanine dimethyltransferase TRM1 (enzyme, UniProt Q9NXH9 24-659)
chain: FEWQSPGLPNTAAMENGTGPYGEERPREVQETTVTEGAAKIAFPSANEVFYNPVQEFNRDLTCAVITEFARIQLGAKGIQIKVPGEKDTQKVVVDLSEQEEEKVELKESENLASGDQPRTAAVGEICEEGLHVLEGLAASGLRSIRFALEVPGLRSVVANDASTRAVDLIRRNVQLNDVAHLVQPSQADARMLMYQHQRVSERFDVIDLDPYGSPATFLDAAVQAVSEGGLLCVTCTDMAVLAGNSGETCYSKYGAMALKSRACHEMALRIVLHSLDLRANCYQRFVVPLLSISADFYVRVFVRVFTGQAKVKASASKQALVFQCVGCGAFHLQRLGKASGVPSGRAKFSAACGPPVTPECEHCGQRHQLGGPMWAEPIHDLDFVGRVLEAVSANPGRFHTSERIRGVLSVITEELPDVPLYYTLDQLSSTIHCNTPSLLQLRSALLHADFRVSLSHACKNAVKTDAPASALWDIMRCWEKECPVKRERLSETSPAFRILSVEPRLQANFTIREDANPSSRQRGLKRFQANPEANWGPRPRARPGGKAADEAMEERRRLLQNKRKEPPEDVAQRAARLKTFPCKRFKEGTCQRGDQCCYSHSPPTPRVSADAAPDCPETSNQTPPGPGAAAGPGID

Second part, the binder before the results:

B1: U5 snRNP 52K protein (CD2BP2) (protein, UniProt O95400 1-341)
chain: MPKRKVTFQGVGDEEDEDEIIVPKKKLVDPVAGSGGPGSRFKGKHSLDSDEEEDDDDGGSSKYDILASEDVEGQEAATLPSEGGVRITPFNLQEEMEEGHFDADGNYFLNRDAQIRDSWLDNIDWVKIRERPPGQRQASDSEEEDSLGQTSMSAQALLEGLLELLLPRETVAGALRRLGARGGGKGRKGPGQPSSPQRLDRLSGLADQMVARGNLGVYQETRERLAMRLKGLGCQTLGPHNPTPPPSLDMFAEELAEEELETPTPTQRGEAESRGDGLVDVMWEYKWENTGDAELYGPFTSAQMQTWVSEGYFPDGVYCRKLDPPGGQFYNSKRIDFDLYT
binding: binds

B2: CRNKL1 (protein, UniProt Q9BZJ0 1-848)
chain: MTATVENLTFQKDTLGNAVDKNTSRLELRSYSLAGRHGSTEPLVLAWSSQFRRLTWGCALDALHRSPCVAASQHGVTHLIRSSRTPHSTRCRKEDAQPGHHGNGAASVTAQARGQRSVLQVPLPVPRSCLFSESFVVSVSSQSRFLASVPGTGVQRSTAADMAASTAAGKQRIPKVAKVKNKAPAEVQITAEQLLREAKERELELLPPPPQQKITDEEELNDYKLRKRKTFEDNIRKNRTVISNWIKYAQWEESLKEIQRARSIYERALDVDYRNITLWLKYAEMEMKNRQVNHARNIWDRAITTLPRVNQFWYKYTYMEEMLGNVAGARQVFERWMEWQPEEQAWHSYINFELRYKEVDRARTIYERFVLVHPDVKNWIKYARFEEKHAYFAHARKVYERAVEFFGDEHMDEHLYVAFAKFEENQKEFERVRVIYKYALDRISKQDAQELFKNYTIFEKKFGDRRGIEDIIVSKRRFQYEEEVKANPHNYDAWFDYLRLVESDAEAEAVREVYERAIANVPPIQEKRHWKRYIYLWINYALYEELEAKDPERTRQVYQASLELIPHKKFTFAKMWILYAQFEIRQKNLSLARRALGTSIGKCPKNKLFKVYIELELQLREFDRCRKLYEKFLEFGPENCTSWIKFAELETILGDIDRARAIYELAISQPRLDMPEVLWKSYIDFEIEQEETERTRNLYRRLLQRTQHVKVWISFAQFELSSGKEGSLTKCRQIYEEANKTMRNCEEKEERLMLLESWRSFEEEFGTASDKERVDKLMPEKVKKRRKVQTDDGSDAGWEEYFDYIFPEDAANQPNLKLLAMAKLWKKQQQEKEDAEHHPDEDVDESES
binding: binds

B6: CWF19L2 (protein, UniProt Q2TBE0 1-894)
chain: MATSMAAASGRFESAKSIEERKEQTRNARAEVLRQAKANFEKEERRKELKRLRGEDTWMLPDVNERIEQFSQEHSVKKKKKKDKHSKKAKKEKKKKSKKQKYEKNNESSDSSSSSEDEWVEAVPSQTPDKEKAWKVKDEKSGKDDTQIIKRDEWMTVDFMSVKTVSSSSLKAEKETMRKIEQEKNQALEQSKLMERELNPYWKDGGTGLPPEDCSVSSITKVSVVEDGGLSWLRKSYLRMKEQAEKQSRNFEDIVAERYGSMEIFQSKLEDAEKAASTKEDYRRERWRKPTYSDKAQNCQESRESDLVKYGNSSRDRYATTDTAKNSNNEKFIGDEKDKRPGSLETCRRESNPRQNQEFSFGNLRAKFLRPSDDEELSFHSKGRKFEPLSSSSALVAQGSLCSGFRKPTKNSEERLTSWSRSDGRGDKKHSNQKPSETSTDEHQHVPEDPREKSQDEVLRDDPPKKEHLRDTKSTFAGSPERESIHILSVDEKNKLGAKIIKAEMMGNMELAEQLKVQLEKANKFKETITQIPKKSGVENEDQQEVILVRTDQSGRVWPVNTPGKSLESQGGRRKRQMVSTHEERERVRYFHDDDNLSLNDLVKNEKMGTAENQNKLFMRMASKFMGKTDGDYYTLDDMFVSKAAERERLGEEEENQRKKAIAEHRSLAAQMEKCLYCFDSSQFPKHLIVAIGVKVYLCLPNVRSLTEGHCLIVPLQHHRAATLLDEDIWEEIQMFRKSLVKMFEDKGLDCIFLETNMSMKKQYHMVYECIPLPKEVGDMAPIYFKKAIMESDEEWSMNKKLIDLSSKDIRKSVPRGLPYFSVDFGLHGGFAHVIEDQHKFPHYFGKEIIGGMLDIEPRLWRKGIRESFEDQRKKALQFAQWWKPYDFTKSKNY
binding: binds

B7: DHX16 helicase (enzyme, UniProt O60231 1-1041)
chain: MATPAGLERWVQDELHSVLGLSERHVAQFLIGTAQRCTSAEEFVQRLRDTDTLDLSGPARDFALRLWNKVPRKAVVEKPARAAEREARALLEKNRSYRLLEDSEESSEETVSRAGSSLQKKRKKRKHLRKKREEEEEEEASEKGKKKTGGSKQQTEKPESEDEWERTERERLQDLEERDAFAERVRQRDKDRTRNVLERSDKKAYEEAQKRLKMAEEDRKAMVPELRKKSRREYLAKREREKLEDLEAELADEEFLFGDVELSRHERQELKYKRRVRDLAREYRAAGEQEKLEATNRYHMPKETRGQPARAVDLVEEESGAPGEEQRRWEEARLGAASLKFGARDAASQEPKYQLVLEEEETIEFVRATQLQGDEEPSAPPTSTQAQQKESIQAVRRSLPVFPFREELLAAIANHQVLIIEGETGSGKTTQIPQYLFEEGYTNKGMKIACTQPRRVAAMSVAARVAREMGVKLGNEVGYSIRFEDCTSERTVLRYMTDGMLLREFLSEPDLASYSVVMVDEAHERTLHTDILFGLIKDVARFRPELKVLVASATMDTARFSTFFDDAPVFRIPGRRFPVDIFYTKAPEADYLEACVVSVLQIHVTQPPGDILVFLTGQEEIEAACEMLQDRCRRLGSKIRELLVLPIYANLPSDMQARIFQPTPPGARKVVVATNIAETSLTIEGIIYVLDPGFCKQKSYNPRTGMESLTVTPCSKASANQRAGRAGRVAAGKCFRLYTAWAYQHELEETTVPEIQRTSLGNVVLLLKSLGIHDLMHFDFLDPPPYETLLLALEQLYALGALNHLGELTTSGRKMAELPVDPMLSKMILASEKYSCSEEILTVAAMLSVNNSIFYRPKDKVVHADNARVNFFLPGGDHLVLLNVYTQWAESGYSSQWCYENFVQFRSMRRARDVREQLEGLLERVEVGLSSCQGDYIRVRKAITAGYFYHTARLTRSGYRTVKQQQTVFIHPNSSLFEQQPRWLLYHELVLTTKEFMRQVLEIESSWLLEVAPHYYKAKELEDPHAKKMPKKIGKTREELG
binding: binds

B8: E3 ubiquitin-protein ligase RNF8 (enzyme, UniProt O76064 1-485)
chain: MGEPGFFVTGDRAGGRSWCLRRVGMSAGWLLLEDGCEVTVGRGFGVTYQLVSKICPLMISRNHCVLKQNPEGQWTIMDNKSLNGVWLNRARLEPLRVYSIHQGDYIQLGVPLENKENAEYEYEVTEEDWETIYPCLSPKNDQMIEKNKELRTKRKFSLDELAGPGAEGPSNLKSKINKVSCESGQPVKSQGKGEVASTPSDNLDPKLTALEPSKTTGAPIYPGFPKVTEVHHEQKASNSSASQRSLQMFKVTMSRILRLKIQMQEKHEAVMNVKKQTQKGNSKKVVQMEQELQDLQSQLCAEQAQQQARVEQLEKTFQEEEQHLQGLEIAQGEKDLKQQLAQALQEHWALMEELNRSKKDFEAIIQAKNKELEQTKEEKEKMQAQKEEVLSHMNDVLENELQCIICSEYFIEAVTLNCAHSFCSYCINEWMKRKIECPICRKDIKSKTYSLVLDNCINKMVNNLSSEVKERRIVLIRERKAKRLF
binding: binds
